Measurements published in publication PMC12040169 (PLOS Biology, 2025).
The list shows a part of the results.

Tested on: T1, CTL2-GFP (C. trachomatis L2/434/Bu, GFP-expressing)
T1 construct: L2/434/Bu, GFP-expressing
Parameters: species or system HeLa; Intracellular C. trachomatis growth in HeLa cells, bulk GFP fluorescence relative to DMSO
Conditions: bulk GFP, single well; 28.5 h, 10 µM; inhibitor

Row | SMILES | % of control remaining [%]
1 | COC1CCCC(C(=O)N2CCCC2c2nc3ccccc3[nH]2)C1 (stereo not drawn) [CBK284007] | 102.523
2 | O=C(CSCCO)Nc1cccc2ccccc12 [CBK265623] | 137.586
3 | O=C(O)CCC(=O)Nc1ccccc1Sc1ccc(Cl)cc1 [CBK287015] | 114.103
4 | COc1nc2nonc2nc1OC [CBK028544] | 114.347
5 | c1cnn(C2CCN(Cc3ccc(Oc4cnccn4)cc3)CC2)c1 [CBK306417] | 138.425
6 | O=C(O)c1cnc2ccc(F)cc2c1N1CCOCC1 [CBK287851] | 115.933
7 | COCCCNC(=O)Cn1cccc2cc(-c3ccc(F)cc3)nc1-2 [CBK284834] | 155.864
8 | CCOc1cc(OCC)cc(C(=O)N2CCC3(CC2)NC(=O)c2ccc(C)cc2O3)c1 [CBK166215] | 97.3896
9 | O=C(Cc1ccsc1)N1CCC2(CCN(Cc3ccccc3)CC2)C1 [CBK136742] | 125.673
10 | c1cnn(CC2CCCCN2c2ncnc3sccc23)c1 (stereo not drawn) [CBK304969] | 128.244
11 | O=C(Nc1ccc2[nH]ccc2c1)c1ccc(OC(F)(F)F)cc1 [CBK159688] | 95.68
12 | CC(=O)Nc1cccc(C(=O)N(Cc2ccccc2)Cc2ccccc2)c1 [CBK269295] | 93.4152
13 | Cc1nc2c(C(=O)NCC3OCCO3)cnn2c(C)c1Cc1ccc(Br)cc1 [CBK167467] | 155.777
14 | COC(=O)c1c(NC(=O)CC2Nc3ccccc3NC2=O)sc2c1CCC2 (stereo not drawn) [CBK269307A] | 150.594
15 | O=C(NCC(=O)N1CCc2ccccc2C1)C1CCCCC1 [CBK306049] | 120.191
16 | Cc1nc(NC(=N)Nc2ccccc2C(F)(F)F)[nH]c(=O)c1Cc1ccccc1 [CBK269083] | 104.431
17 | O=C(Cc1cccs1)N1CCC(O)(c2cccnc2)CC1 [CBK283501] | 116.738
18 | CCOc1ccc(S(=O)(=O)NCc2ccncc2)cc1NC(C)=O [CBK269527] | 115.554
19 | Cc1ccc(OCc2cc(C)on2)c(Br)c1 [CBK002837] | 96.3389
20 | CCOC(=O)C1CCCN1Cc1ccccc1 (stereo not drawn) [CBK278278G] | 106.867
21 | COc1ccc2[nH]cc(CCNC(=O)CCCN(C)C)c2c1 [CBK116202] | 122.633

Row | SMILES | % of control remaining [%]
22 | COc1ccc(CCNC(=O)c2ccccc2N(C)S(C)(=O)=O)cc1 [CBK266833] | 110.364
23 | Cc1c(NC2CCN(c3ccc(C#N)cc3)C2=O)cnn1C1CCCC1 (stereo not drawn) [CBK304735] | 104.724
24 | O=c1[nH]c2ccccc2n1CCCN1CCC(Cc2ccccc2)CC1 [CBK138318] | 120.957
25 | O=C(Cn1c(-c2cccs2)cc2cccnc21)NCC1CC1 [CBK282553] | 103.399
26 | COC(=O)CCc1ccc(Oc2ncc(C(F)(F)F)cc2Cl)cc1 [CBK161628] | 97.1424
27 | COc1cc(C=C2SC(NCC(=O)O)=NC2=O)ccc1OCc1ccc(Cl)cc1Cl [CBK297555] | 125.455
28 | O=S(=O)(c1ccc(F)c(Cl)c1)n1ccc2c(N3CCNCC3)nccc21 [CBK059059C] | 82.8587
29 | FC(F)(F)c1nnc2ccc(-n3ccnc3)nn12 [CBK020041] | 115.171
30 | N#CCCSc1nnc(-c2cccnc2)n1Cc1ccccc1 [CBK267526] | 130.141
31 | Cc1ccc(S(=O)(=O)Nc2c(C(=O)O)[nH]c3ccccc23)cc1 [CBK049880] | 101.917
32 | O=C(NC(Cc1cnc[nH]1)C(=O)O)c1ccccc1 (stereo not drawn) [CBK059018] | 115.17
33 | CC1CCc2sc3ncnc(N4CCN(CCOC(c5ccccc5)c5ccccc5)CC4)c3c2C1 (stereo not drawn) [CBK264884] | 100
34 | CC(C)(CSc1nnc(Nc2ccccc2)s1)NS(=O)(=O)c1ccc(Cl)cc1 [CBK266388] | 95.022
35 | Cc1ccc(S(=O)(=O)N(C)c2c(C)ccc(S(=O)(=O)N3CCN(C)CC3)c2C)cc1 [CBK265642] | 122.738
36 | COCCn1c(=O)[nH]c2ncc(-c3ccsc3)nc21 [CBK064156] | 75.3987
37 | O=C(c1cscn1)N1C2CCC1CC(O)(c1ccco1)C2 (stereo not drawn) [CBK284135] | 94.1603
38 | CN1CCN(c2cc(-c3ccccc3N(C)C)nc3ccnn23)CC1 [CBK037158] | 98.3838
39 | CS(=O)(=O)c1ccc(-c2cnc(N)c3ncccc23)cc1 [CBK067593] | 150.52
40 | COc1ccc(OCCNC(=O)c2ccc(C)nc2NCCCn2ccnc2)cc1 [CBK076385] | 109.806
41 | C/C(=C\C(=O)NC1CC(C)(C)NC(C)(C)C1)NC1CC(C)(C)NC(C)(C)C1 [CBK261982] | 118.258
42 | CCC(C)NC(=O)Cn1c(C2CCOCC2)cc2cc(C)cnc21 (stereo not drawn) [CBK284756] | 119.029

A draw from above in order of length of the SMILES, low to high.
Row | SMILES | % of control remaining [%]
29 | FC(F)(F)c1nnc2ccc(-n3ccnc3)nn12 [CBK020041] | 115.171
42 | CCC(C)NC(=O)Cn1c(C2CCOCC2)cc2cc(C)cnc21 (stereo not drawn) [CBK284756] | 119.029
35 | Cc1ccc(S(=O)(=O)N(C)c2c(C)ccc(S(=O)(=O)N3CCN(C)CC3)c2C)cc1 [CBK265642] | 122.738

(more compounds)

Row | SMILES | % of control remaining [%]
43 | CCn1ncc(S(=O)(=O)Nc2ccc3c(ccn3C)c2)c1C [CBK282730] | 126.378
44 | Cn1c(=O)n(Cc2ccc(Cl)cc2)c2cccnc21 [CBK282333] | 124.474
45 | O=C(CSc1nnnn1-c1cccnc1)NC1CCCCCC1 [CBK270092] | 158.872
46 | CC(=O)Nc1nonc1OCCOc1nonc1NC(C)=O [CBK020227] | 131.933
47 | CC(NC(=O)c1ncoc1-c1ccccc1F)c1ccccn1 (stereo not drawn) [CBK282402] | 143.742
48 | CCCCNC(=S)N[C@H]1CC[C@@]2(Cc3ccc(OC)cc3)CCN(C)[C@H]2C1 [CBK004258] | 121.366
49 | O=S(=O)(c1cccc(C(F)(F)F)c1)n1ccc2c(CN3CCC[C@@H]3CO)cccc21 [CBK116167T] | 91.5037
50 | CCCNc1cc(C)c(C#N)c2nc3ccccc3n12 [CBK288097] | 153.893
51 | O=C(O)C1CCCN(C(=O)NCc2cccc(C(F)(F)F)c2)C1 (stereo not drawn) [CBK161345] | 122.516
52 | CCCCOC(=O)c1ccccc1NC(=O)NCCc1cccs1 [CBK043573] | 121.781
53 | O=C(CSc1nc2ccccc2s1)c1cccc([N+](=O)[O-])c1 [CBK262130] | 100
54 | CC(=O)c1cccc(NC(=O)CN(c2cc(Cl)ccc2Cl)S(=O)(=O)c2ccc(C)cc2)c1 [CBK268897] | 64.4384
55 | CCC(C)(C)c1ccc(S(=O)(=O)Nc2n[nH]cc2Br)cc1 [CBK043734] | 112.562
56 | COc1cccc2cc(C(=O)NCC3COc4ccccc4O3)oc12 (stereo not drawn) [CBK149791] | 93.037
57 | CC1CCN(C(=O)C2C3CCC4(CC(=O)c5ccccc5O4)C32)CC1 (stereo not drawn) [CBK284872] | 132.644
58 | O=C(c1cc(C2CC2)n[nH]1)N1CCn2cc(C(F)(F)F)nc2C1 [CBK284749] | 119.88
59 | COc1cccc(-c2nccnc2C2CCCN(S(=O)(=O)c3ccc(F)cc3)C2)c1 (stereo not drawn) [CBK286138] | 119.27
60 | CCN(CC)C(=O)c1ccsc1NS(=O)(=O)c1cccc2cccnc12 [CBK042317] | 136.766
61 | CC(C)(C)OC(=O)N1CCN(Cc2ncc(-c3ccccc3)o2)CC1 [CBK306281] | 149.703
62 | Cc1cccc(-c2n[nH]/c(=N/C(=O)c3ccccc3F)s2)c1 [CBK287957] | 137.108
63 | OC(CN1CCC(O)(c2ccc3c(c2)OCO3)CC1)c1ccc2c(c1)CCC2 (stereo not drawn) [CBK286326] | 130.959

Single values from the results shown:
% of control remaining [%], `CCCCNC(=S)N[C@H]1CC[C@@]2(Cc3ccc(OC)cc3)CCN(C)[C@H]2C1` [CBK004258] reads 121.366
% of control remaining [%], `CC1CCN(C(=O)C2C3CCC4(CC(=O)c5ccccc5O4)C32)CC1` (stereo not drawn) [CBK284872] reads 132.644
% of control remaining [%], `CCCNc1cc(C)c(C#N)c2nc3ccccc3n12` [CBK288097] reads 153.893
% of control remaining [%], `CCCCOC(=O)c1ccccc1NC(=O)NCCc1cccs1` [CBK043573] reads 121.781

Further records

Row | SMILES | % of control remaining [%]
64 | N#CCCCN1CCC(Oc2nccnc2OCc2ccc(Br)cc2F)CC1 [CBK153647] | 106.538
65 | O=C(O)c1cccc(Sc2cc(C(F)(F)F)ccn2)c1 [CBK093590] | 120.116
66 | CCC(=O)Nc1ccc(O)cc1C(=O)O [CBK126818] | 109.248
67 | Cc1cc(NS(=O)(=O)c2ccc(C(C)C)cc2)n[nH]1 [CBK044646] | 101.672
68 | COc1ccc(Oc2cncc(OC3CCN(Cc4ccc(Cl)c(Cl)c4)C3)n2)cc1OC (stereo not drawn) [CBK084391] | 80.5118
69 | CCOC(=O)N1CCN(CC(O)COc2cc(C)c(Cl)c(C)c2)CC1 (stereo not drawn) [CBK033833C] | 111.9
70 | Cc1cc(NC(=O)CN2CCC(CSc3ccccc3)C2)no1 (stereo not drawn) [CBK306136] | 128.176
71 | CCNc1nccnc1-c1ccc(O)cc1 [CBK088589] | 127.701
72 | O=S(=O)(c1cccc2nsnc12)N1CCN(C2CCCCC2)CC1 [CBK268173] | 123.816
73 | COc1ccc(COc2nc3c(c(=O)n(C)c(=O)n3C)n2Cc2ccc(Cl)c(Cl)c2)cc1 [CBK268779] | 112.432
74 | Cc1ccc(NC2=NC3(N=C(N)N2)C(=O)N(C)c2ccccc23)cc1 (stereo not drawn) [CBK270157] | 122.298
75 | C[C@@H]1CN(C(=O)c2cncn2C)C[C@H](C)O1 [CBK200370] | 137.31
76 | Cc1nn(C)c(Cl)c1S(=O)(=O)Nc1ccnn1C [CBK062072] | 113.246
77 | S=c1nc[nH]cc1-c1ccc(Br)cc1 [CBK005833] | 113.656
78 | Cc1cc2nc(-c3ccccc3)[nH]c2cc1C [CBK086484] | 145.5
79 | O=C(O)/C=C/c1cccc(-c2cnc3[nH]c(=O)n(C4CC4)c3n2)c1 [CBK065091] | 199.985
80 | COc1cc(OCc2ccccc2)ccc1CN1CCN(Cc2ccc3c(c2)OCO3)CC1 [CBK074768] | 86.1773
81 | O=C(c1ccc2[nH]nnc2c1)N1CCN(S(=O)(=O)Cc2ccccc2)CC1 [CBK295346] | 151.418
